In PubChem BioAssay (NCATS):
Inconclusive results, whose numbers are uncertain, are shown with a selection of clear calls. Where the call is inconclusive, the potency comes from a doubtful curve fit. The source made the active and inactive calls. Calls follow the shape of the dose curve; as a rule, active = well fitted cell-killing curve with a large enough effect; inconclusive = small, poorly fitted or top-dose-only effect, or effect the other way; inactive = no such curve, though single readings can be large or run the other way.

Assay: Quantitative High-Throughput drug screen in 47 multiple myeloma cell lines against the NCATS MIPE library collection: Delta47_JCRB cell viability assay (AID 1918925; also: nearly all actives have a fitted effect of over 45% in size)
Details: Delta47 myeloma viability, CellTiter-Glo ATP, 48 h; viability (% of DMSO): at 45.8 µM (top of the series)
Summary of the method: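 Luminescent ATP measurement with CellTiter-Glo gives viability, scaled between DMSO-only wells (100%) and media-only wells (0%). Cells, 500 per well, faced library compounds for 48 hours at 37C.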
Potency is read from the fitted curve at half-maximal effect.

Question: With `CON=C(C(=O)N[C@@H]1C(=O)N2C(C(=O)O)=C(CSC(=O)c3ccco3)CS[C@H]12)c1csc(N)n1` as the molecule, how does the Potency read?
Answer: inconclusive: 14.8 µM [cytotoxic, partial curve, poor fit]

Question: With `CC[C@H](C)C(=O)O[C@H]1C[C@@H](C)C=C2C=C[C@H](C)[C@H](CC[C@@H]3C[C@@H](O)CC(=O)O3)[C@H]21` as the molecule, how does the Potency read?
Answer: inconclusive: 20.9 µM [cytotoxic, partial curve, poor fit]

Question: With `O=C(c1ccc(F)cc1)C1CCN(CCn2c(=O)[nH]c3ccccc3c2=O)CC1` as the molecule, how does the Potency read?
Answer: inconclusive: 1.32 µM [cytotoxic, partial curve, poor fit]

Question: Which Potency does the source give for `Clc1ccc(C2(c3ccc(-c4cn[nH]c4)cc3)CCNCC2)cc1` here?
Answer: active: 1.32 µM

Question: For `CSc1cccc(Nc2ncc3cc(-c4c(Cl)cccc4Cl)c(=O)n(C)c3n2)c1`, which Potency is on record?
Answer: inconclusive: 7.43 µM [cytotoxic, full curve, poor fit]

Question: For `COc1ccc(-c2ccc3cc(C(=O)O)ccc3c2)cc1C12CC3CC(CC(C3)C1)C2`, which “viability (% of DMSO)” value is on record?
Answer: inactive: 131%

Question: With `CN1CCN(c2c(F)cc3c(=O)c(C(=O)O)cn(CCF)c3c2F)CC1` as the molecule, how does the “viability (% of DMSO)” value read?
Answer: inactive: 86.8%

Question: Which Potency does the source give for `COc1nc(C)cnc1NS(=O)(=O)c1cccnc1-c1ccc(-c2nnco2)cc1` here?
Answer: inconclusive: 4.69 µM [cytotoxic, partial curve, poor fit]

Question: With `Cc1nnc(C(=O)NC(C)(C)c2nc(C(=O)NCc3ccc(F)cc3)c(O)c(=O)n2C)o1` as the molecule, how does the “viability (% of DMSO)” value read?
Answer: inactive: 120%

Question: For `OC[C@H](Cc1ccccc1)Nc1nc(Oc2ccc3c(c2)CCC3)nc2c1ncn2Cc1ccc(-c2ccccc2)cc1`, which Potency is on record?
Answer: inconclusive: 3.72 µM [cytotoxic, full curve, poor fit]

Question: Which “viability (% of DMSO)” value does the source give for `Nc1nc(N)nc(-c2cc(Cl)ccc2Cl)n1` here?
Answer: inactive: 115%

Question: For `CCc1nc(-c2cccc(C)c2)c(-c2ccnc(NC(=O)c3ccccc3)c2)s1`, which Potency is on record?
Answer: inconclusive: 20.9 µM [cytotoxic, partial curve, poor fit]

Question: For `CC(C)(S)[C@@H](N)C(=O)O`, which Potency is on record?
Answer: inconclusive: 2.35 µM [cytotoxic, full curve, poor fit]

Question: For `CNC(=O)c1ccc(N2C(=S)N(c3ccc(C#N)c(C(F)(F)F)c3)C(=O)C2(C)C)cc1F`, which Potency is on record?
Answer: inconclusive: 0.187 µM [rising, full curve, poor fit]

Question: With `c1cc(N[C@@H]2CCNC2)nc(-c2cnc3ccc(-c4cn[nH]c4)cn23)c1` as the molecule, how does the Potency read?
Answer: active: 9.35 µM

Question: Which “viability (% of DMSO)” value does the source give for `O=C(NCCS(=O)(=O)c1ccc(C(F)(F)F)cn1)c1ccc(Cl)cc1` here?
Answer: inactive: 128%

Question: Which Potency does the source give for `CN(C)CCCC1(c2ccc(F)cc2)OCc2cc(C#N)ccc21` (stereo not drawn) here?
Answer: inconclusive: 18.7 µM [cytotoxic, partial curve, poor fit]

Question: Which Potency does the source give for `COc1ccc(CC2c3cc(OC)c(OC)cc3CC[N+]2(C)CCC(=O)OCCCCCOC(=O)CC[N+]2(C)CCc3cc(OC)c(OC)cc3C2Cc2ccc(OC)c(OC)c2)cc1OC` (stereo not drawn) here?
Answer: active: 3.28 µM

Question: For `COc1ccc2nc(S(=O)Cc3ncc(C)c(OC)c3C)[nH]c2c1` (stereo not drawn), which Potency is on record?
Answer: inconclusive: 18.7 µM [cytotoxic, partial curve, poor fit]

Question: With `COC(=O)[C@H](CCCN=C(N)N)NS(=O)(=O)c1ccc(C)cc1` as the molecule, how does the Potency read?
Answer: inconclusive: 7.43 µM [cytotoxic, partial curve, poor fit]

Question: Which “viability (% of DMSO)” value does the source give for `CCCc1nc(C(C)(C)O)c(C(=O)O)n1Cc1ccc(-c2ccccc2-c2nn[nH]n2)cc1` here?
Answer: inactive: 76.8%

Question: For `Cn1c(CNc2ccc(C(=N)N)cc2)nc2cc(C(=O)N(CCC(=O)O)c3ccccn3)ccc21`, which Potency is on record?
Answer: inconclusive: 18.2 µM [cytotoxic, single point]

Question: Which Potency does the source give for `O=C(O)c1ccc(O)c2ncc(N3CCOCC3)cc12` here?
Answer: inconclusive: 11.8 µM [cytotoxic, partial curve, poor fit]

Question: For `CC[C@H](CC#N)OC(=O)N[C@@H](C)c1cccc(NC(=O)Nc2ccc(-c3cnco3)c(OC)c2)c1`, which Potency is on record?
Answer: inconclusive: 14.8 µM [cytotoxic, partial curve, poor fit]

Question: Which “viability (% of DMSO)” value does the source give for `CCCCCCCCCCCCCCCC(=O)O[C@H]1[C@@H](O)[C@@H](O)[C@@H]([C@H](NC(=O)[C@@H]2C[C@@H](CCC)CN2C)[C@H](C)Cl)O[C@@H]1SC` here?
Answer: inactive: 120%

Question: With `Nc1ccc(S(=O)(=O)Nc2ccccn2)cc1` as the molecule, how does the Potency read?
Answer: inconclusive: 8.33 µM [rising, partial curve]

Question: For `CCOc1cc2ncc(C#N)c(Nc3ccc(F)c(Cl)c3)c2cc1NC(=O)C=CCN(C)C`, which Potency is on record?
Answer: active: 6.62 µM

Question: Which Potency does the source give for `O=C(NCCCCN1CCOCC1)c1cc2ccccc2o1` here?
Answer: inconclusive: 0.0296 µM [cytotoxic, full curve, poor fit]

Question: With `CN(C)c1ccccc1CN1CCCN(Cc2ccccc2N(C)C)C1c1ccncc1` as the molecule, how does the Potency read?
Answer: active: 20.9 µM

Question: Which Potency does the source give for `C[C@@H](NC(=O)c1ncnc(N)c1Cl)c1ncc(C(=O)Nc2cc(C(F)(F)F)c(Cl)cn2)s1` here?
Answer: inconclusive: 20.9 µM [cytotoxic, partial curve]

Question: Which Potency does the source give for `CCN(CCO)CCCOc1ccc2c(Nc3cc(CC(=O)Nc4cccc(F)c4)[nH]n3)ncnc2c1` here?
Answer: inconclusive: 20.9 µM [cytotoxic, partial curve, poor fit]

Question: Which “viability (% of DMSO)” value does the source give for `O=S(=O)(O)CCS` here?
Answer: inactive: 119%

Question: With `CC[C@H]1OC(=O)[C@H](C)[C@@H](O[C@H]2C[C@@](C)(OC)[C@@H](O)[C@H](C)O2)[C@H](C)[C@@H](O[C@@H]2O[C@@H](C)C[C@H](N(C)C)[C@@H]2O)[C@](C)(O)C[C@@H](C)C(=O)[C@H](C)[C@@H](O)[C@]1(C)O` as the molecule, how does the Potency read?
Answer: inconclusive: 20.9 µM [cytotoxic, single point]

Question: For `COc1ccc(CCN2CCN(CCCc3ccccc3)CC2)cc1OC`, which Potency is on record?
Answer: inconclusive: 1.32 µM [rising, full curve, poor fit]

Question: With `O=[N+]([O-])c1cn2c(n1)OC[C@@H](OCc1ccc(OC(F)(F)F)cc1)C2` as the molecule, how does the “viability (% of DMSO)” value read?
Answer: inactive: 115%

Question: For `OC[C@@H](O)[C@@H](O)[C@H](O)[C@@H](O)CO`, which Potency is on record?
Answer: inconclusive: 0.001 µM

Question: For `NC(=NCc1ccccc1)NC(=O)c1nc(Cl)c(N)nc1N`, which Potency is on record?
Answer: active: 6.62 µM

Question: For `Fc1ccc(C(c2ccc(F)cc2)N2CCN(CC=Cc3ccccc3)CC2)cc1`, which “viability (% of DMSO)” value is on record?
Answer: inactive: 102%
